No constants are given. Whether binding was seen depends on the method and setting. In cells and extracts the contact can be indirect. These calls come from enrichment with a bait or labelling near it, and not all partners need be listed. No binding means not detected with the bait. Where a sequence is shown, tags or fusion partners need not be part of it.
Target: T1, HA-SDE2UBL-PA activity-based probe (human) (UniProt Q6IQ49)
T1 sequence (chain, C-terminal propargylamide, Gly77 replaced with a propargyl electrophilic warhead): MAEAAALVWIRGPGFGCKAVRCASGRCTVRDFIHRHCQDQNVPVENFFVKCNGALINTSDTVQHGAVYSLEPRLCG
Assay: affinity purification with mass spectrometry; HEK293 lysate with 1 µM HA-SDE2UBL-PA, anti-HA immunoprecipitation, trypsin digestion, DIA proteomics against a no-probe control, triplicate; only the target purified

binding: no binding (tested: probe 1 µM)
B1: endogenous USP13 of HEK293 cell lysate (enzyme, UniProt Q92995 1-863)
chain: MQRRGALFGMPGGSGGRKMAAGDIGELLVPHMPTIRVPRSGDRVYKNECAFSYDSPNSEGGLYVCMNTFLAFGREHVERHFRKTGQSVYMHLKRHVREKVRGASGGALPKRRNSKIFLDLDTDDDLNSDDYEYEDEAKLVIFPDHYEIALPNIEELPALVTIACDAVLSSKSPYRKQDPDTWENELPVSKYANNLTQLDNGVRIPPSGWKCARCDLRENLWLNLTDGSVLCGKWFFDSSGGNGHALEHYRDMGYPLAVKLGTITPDGADVYSFQEEEPVLDPHLAKHLAHFGIDMLHMHGTENGLQDNDIKLRVSEWEVIQESGTKLKPMYGPGYTGLKNLGNSCYLSSVMQAIFSIPEFQRAYVGNLPRIFDYSPLDPTQDFNTQMTKLGHGLLSGQYSKPPVKSELIEQVMKEEHKPQQNGISPRMFKAFVSKSHPEFSSNRQQDAQEFFLHLVNLVERNRIGSENPSDVFRFLVEERIQCCQTRKVRYTERVDYLMQLPVAMEAATNKDELIAYELTRREAEANRRPLPELVRAKIPFSACLQAFSEPENVDDFWSSALQAKSAGVKTSRFASFPEYLVVQIKKFTFGLDWVPKKFDVSIDMPDLLDINHLRARGLQPGEEELPDISPPIVIPDDSKDRLMNQLIDPSDIDESSVMQLAEMGFPLEACRKAVYFTGNMGAEVAFNWIIVHMEEPDFAEPLTMPGYGGAASAGASVFGASGLDNQPPEEIVAIITSMGFQRNQAIQALRATNNNLERALDWIFSHPEFEEDSDFVIEMENNANANIISEAKPEGPRVKDGSGTYELFAFISHMGTSTMSGHYICHIKKEGRWVIYNDHKVCASERPPKDLGYMYFYRRIPS

Source: article PMC13572447
